Taken from: PubChem BioAssay AID743454 (Peter MacCallum Cancer Centre, 2014)
The deposit covers about 18,000 reagents; this is a random part of them. 450 of them (2.5%) count as active. 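Single biological run; no consistent viability z cut-off exists, so the class columns, not z-scores, define the calls.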

Assay: 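Knock-downs lowering viability or raising caspase 3/7 activity in vorinostat-treated resistant cells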 (primary screen)
System: human HCT116-VR colon cancer cells, selected for vorinostat resistance
Reagent: siRNA pool against human genes, 40 nM siRNA pool
Duration: vorinostat for 24 h, read-out about 72 h after transfection
Challenge: vorinostat at 2.5 µM final
Measurement: 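Two measures, CellTiter-Fluor viability and luminescent caspase 3/7 activity, each as fold change against same-plate mock wells, mean of duplicates, then screen-wide robust z-score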
Scale: viability robust z-score: higher = more viable cells than screen typical; caspase robust z-score: higher = more caspase 3/7 activity than screen typical
Call rule: 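a knock-down is a hit when classed RV1 or RV2 for lowered viability, or CA1 or CA2 for caspase activation; those lethal without drug were dropped; hits were retested singly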

| Target gene | viability hit class | caspase hit class | viability robust z-score | caspase robust z-score | Call |
| --- | --- | --- | --- | --- | --- |
| MCM4 (GeneID 4173) | no change | no change | -1.06 | -0.06 | inactive |
| ITM2B (GeneID 9445) | no change | no change | 0.94 | 0.49 | inactive |
| PLEKHJ1 (GeneID 55111) | no change | no change | 0.53 | 1.43 | inactive |
| FBXL18 (GeneID 80028) | no change | no change | 0.2 | 4.3 | inactive |
| MRPL2 (GeneID 51069) | no change | no change | -2.08 | 3.77 | inactive |
| CALCOCO1 (GeneID 57658) | no change | no change | -3.42 | 0.28 | inactive |
| FREM2 (GeneID 341640) | no change | no change | -1.07 | -0.23 | inactive |
| PIM1 (GeneID 5292) | no change | no change | 1.23 | -0.32 | inactive |
| THADA (GeneID 63892) | no change | no change | 1.37 | -0.12 | inactive |
| URI1 (GeneID 8725) | no change | no change | -0.52 | 0.15 | inactive |
| PRIMA1 (GeneID 145270) | no change | no change | -0.97 | 2.77 | inactive |
| USP24 (GeneID 23358) | no change | no change | -0.92 | -0.53 | inactive |
| ACTL8 (GeneID 81569) | no change | no change | 0.25 | -0.08 | inactive |
| LCN12 (GeneID 286256) | no change | no change | 0.8 | 0.8 | inactive |
| PFKP (GeneID 5214) | no change | no change | -0.43 | -1.02 | inactive |
| TGM3 (GeneID 7053) | no change | no change | -0.08 | -0.47 | inactive |
| OXTR (GeneID 5021) | no change | CA1 (caspase activation) | -1 | 5.28 | active |
| ARSJ (GeneID 79642) | no change | no change | -0.96 | 0.55 | inactive |
| CARD9 (GeneID 64170) | no change | no change | 1.04 | 2.96 | inactive |
| CAV3 (GeneID 859) | no change | no change | 0.24 | 0.14 | inactive |
| FABP2 (GeneID 2169) | no change | no change | -0.23 | 2.9 | inactive |
| KLHL9 (GeneID 55958) | no change | no change | 0.44 | -0.44 | inactive |
| CHSY1 (GeneID 22856) | no change | no change | -0.2 | 1.79 | inactive |
| S1PR1 (GeneID 1901) | no change | no change | 0.09 | 0.27 | inactive |
| IMPG1 (GeneID 3617) | no change | no change | -2.85 | 0.27 | inactive |
| PDC (GeneID 5132) | no change | no change | 0.11 | 0.02 | inactive |
| MTPN (GeneID 136319) | no change | no change | 0.21 | 1.21 | inactive |
| SAMSN1 (GeneID 64092) | no change | no change | -0.31 | -0.9 | inactive |
| CD79A (GeneID 973) | no change | CA2 (caspase activation) | -0.61 | 6.58 | active |
| MECR (GeneID 51102) | no change | no change | -1.49 | 2.98 | inactive |
| OR2T1 (GeneID 26696) | no change | no change | 1.15 | -0.63 | inactive |
| RASSF1 (GeneID 11186) | no change | no change | -0.24 | 2.03 | inactive |
| EHHADH (GeneID 1962) | no change | no change | 0.67 | -0.64 | inactive |
| NOTCH4 (GeneID 4855) | no change | no change | 1.09 | -1.17 | inactive |
| BANP (GeneID 54971) | no change | no change | 0.72 | 2.11 | inactive |
| DDT (GeneID 1652) | no change | no change | 0.92 | -0.62 | inactive |
| CDY2A (GeneID 9426) | no change | no change | -1.71 | 1.73 | inactive |
| DNAI1 (GeneID 27019) | no change | no change | -0.52 | -0.86 | inactive |
| RBPJL (GeneID 11317) | no change | no change | -0.33 | 1.54 | inactive |
| PRMT7 (GeneID 54496) | no change | no change | -0.32 | -1.38 | inactive |
| TM9SF4 (GeneID 9777) | no change | no change | -0.8 | -0.32 | inactive |
| STAR (GeneID 6770) | no change | no change | -1.88 | 2.16 | inactive |
| TMEM185A (GeneID 84548) | no change | no change | -1.01 | 1.12 | inactive |
| RAB11FIP4 (GeneID 84440) | no change | no change | 0.42 | -0.09 | inactive |
| FYB2 (GeneID 199920) | no change | no change | -0.85 | 4.21 | inactive |
| TMEM215 (GeneID 401498) | no change | no change | 0.73 | 0.08 | inactive |
| ACOT9 (GeneID 23597) | no change | no change | 0.04 | -1.02 | inactive |
| PPIB (GeneID 5479) | no change | no change | 0.09 | -0.78 | inactive |
| UTP3 (GeneID 57050) | RV2 (reduced viability) | no change | -3.12 | 3.12 | active |
| SHANK2 (GeneID 22941) | no change | no change | -0.66 | 0.01 | inactive |
| HS1BP3 (GeneID 64342) | no change | no change | -0.01 | -0.08 | inactive |
| IGF2BP2-AS1 (GeneID 646600) | no change | no change | -0.42 | 1.58 | inactive |
| MMP21 (GeneID 118856) | no change | no change | -1.03 | 2.63 | inactive |
| PCDHGB3 (GeneID 56102) | no change | no change | 0.08 | 1.26 | inactive |
| TIMM8B (GeneID 26521) | no change | no change | 0.74 | 0.96 | inactive |
| TBCEL (GeneID 219899) | no change | no change | 0.38 | 0.61 | inactive |
| OR13A1 (GeneID 79290) | no change | no change | 1.36 | 0.17 | inactive |
